Source: PubChem BioAssay AID485314 (National Center for Advancing Translational Sciences (NCATS), 2010)
About 4,500 (1.3%) of roughly 340,000 compounds were called active. Inconclusive results, whose numbers are uncertain, are shown with a selection of clear calls. Calls follow the shape of the dose curve; as a rule, active = well fitted inhibition curve with a large enough effect; inconclusive = small, poorly fitted or top-dose-only effect, or another doubt; inactive = no such curve, though single readings can be large or run the other way. Potencies of inconclusive entries are doubtful fits and often do not repeat.

Target: DNA polymerase beta (Homo sapiens) (UniProt P06746)
Assay: qHTS Assay for Inhibitors of DNA Polymerase Beta
Details: Pol beta primer extension/strand displacement, fluorescence kinetic; series mostly up to 114 µM
Method in brief: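 Human Pol beta at 10 nM; strand-displacement substrate 50 nM final. Compound exposure 15 min at room temperature before start, reaction 10 min at room temperature.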
Potency is read from the fitted curve at half-maximal effect.

Row | SMILES | Potency
1 | O=C(NCc1cccs1)c1ccc(Cn2c(SCc3cccc(F)c3)nc3cccnc32)cc1 | inactive
2 | CC(C)N(Cc1nc(-c2ccc3c(c2)OCO3)no1)Cc1nccn1C | inconclusive: 5.01 µM [inhibitor, full curve, poor fit]
3 | COc1ccccc1-c1nc2c(c(SCC(=O)Nc3c(C)cc(C)cc3C)n1)Cc1c(CO)cnc(C)c1O2 | inconclusive: 3.16 µM [inhibitor, full curve, poor fit]
4 | O=S(=O)(NC1CCCCC1)c1cccc(-c2nnc(-c3ccccc3)o2)c1 | inactive
5 | CCc1cccc(NC(=O)C(Cc2ccccc2)NS(=O)(=O)c2ccc3c(c2)oc(=O)n3C)c1 (stereo not given) | inactive
6 | CCOc1ccccc1N1CCN(C(=O)c2cccc(-c3ccc(O)cc3)c2)CC1 | inconclusive: 0.251 µM [inhibitor, full curve, poor fit]
7 | CSc1ccccc1OCc1cc(C(=O)N2CCN(C3CCCC3)C(=O)C2)no1 | inconclusive: 39.8 µM [inhibitor, single point]
8 | Cc1ccc(S(=O)(=O)Cc2ccc(C(=O)N3CCc4ccccc4C3)o2)cc1 | active: 15.8 µM
9 | COc1ccccc1N1CCN(C(=O)c2ccc3[nH]c(C)c(C)c3c2)CC1 | inconclusive: 0.224 µM [inhibitor, full curve]
10 | COc1ccc(CCC(=O)NCc2ccco2)cc1 | active: 39.8 µM
11 | COC(=O)c1cccc(Cn2c(Cl)c(/C=N/NC(=O)c3ccco3)sc2=O)c1 | inconclusive: 6.31 µM [inhibitor, single point]
12 | CCOc1[nH]c(/N=C/c2ccco2)c(C#N)c1C#N | inactive
13 | CCc1ccc(Cn2c(CNS(=O)(=O)c3ccc(F)c(Cl)c3)nc3cccnc32)cc1 | inactive
14 | CCOC(=O)c1ccccc1NC(=O)c1ccc2c(=O)n3c(nc2c1)CCCCC3 | inconclusive: 1.58 µM [inhibitor, full curve]
15 | Cc1nc2ccc(C(=O)Nc3ccc4nc[nH]c4c3)cc2[nH]1 | inconclusive: 79.4 µM [inhibitor, single point]
16 | Cc1cccc(N2CC(C(=O)Nc3nnc(SCC(=O)Nc4cc(C)on4)s3)CC2=O)c1 (stereo not given) | inconclusive: 28.2 µM [inhibitor, partial curve]
17 | C#CCOCCOCCOCCNc1nc(N2CCN(C(=O)Cn3cc(CCCN=C(N)N)nn3)CC2)nc(N2CCN(C(=O)[C@H](C)n3cc(CCCN=C(N)N)nn3)CC2)n1 | active: 39.8 µM
18 | CCOC(=O)Cc1csc(SC(C)C(=O)Nc2ccc(NC(C)=O)cc2)n1 (stereo not given) | active: 89.1 µM
19 | Cc1nc(NC(=O)c2ccc([N+](=O)[O-])cc2Cl)sc1C(=O)N(C)C | inconclusive: 31.6 µM [inhibitor, partial curve]
20 | COc1ccccc1OCCSc1nc2ccccc2n1CCC(=O)O | inactive

Row | SMILES | Potency
21 | COc1ccc(N=c2oc3cc(O)ccc3cc2C(=O)NCC2CCCO2)cc1 (stereo not given) | inconclusive: 2.24 µM [inhibitor, full curve, poor fit]
22 | O=C(OC1CCOC1=O)c1ccc(Cl)c(S(=O)(=O)N2CCCCC2)c1 (stereo not given) | inconclusive: 20 µM [inhibitor, partial curve]
23 | Cc1ccc(CNc2ncccc2-c2nc(-c3ccc(Cl)cc3)no2)cc1 | inconclusive: 89.1 µM [inhibitor, single point]
24 | CC1=C(c2ccc(Cl)cc2)S(=O)(=O)N=C1N1CCC(C(=O)NCCc2ccco2)CC1 | inconclusive: 22.4 µM [inhibitor, full curve]
25 | O=S(=O)(Nc1cc2nc3ccccc3nc2n1Cc1ccccc1)c1ccc(Cl)cc1 | inconclusive: 12.6 µM [inhibitor, full curve, poor fit]
26 | CC(C)OC(=O)c1cccnc1N1CCN(c2cccc(Cl)c2)CC1 | inconclusive: 44.7 µM [inhibitor, partial curve]
27 | O=C(NC1CC1)c1ccc(Cn2c(SCc3ccc(F)cc3)nc3cccnc32)cc1 | inconclusive: 1 µM [inhibitor, full curve, poor fit]
28 | COc1ccc(-c2cc(C(F)(F)F)nc(SCCC(=O)Nc3cccc(OC)c3)n2)cc1 | inconclusive: 63.1 µM [inhibitor, single point]
29 | O=[N+]([O-])c1ccc(-c2ccc(/C=N/n3cnnc3)o2)c(Br)c1 | inconclusive: 63.1 µM [inhibitor, single point]
30 | COc1cc(S(=O)(=O)N2CCN(C(=O)c3ccccc3)CC2)c(OC)cc1Br | inconclusive: 0.708 µM [inhibitor, full curve, poor fit]
31 | C=CCOC(=O)C1=C(C)N=c2s/c(=C3\C(=O)N(CC(=O)O)c4ccccc43)c(=O)n2C1c1ccc(OC)cc1 (stereo not given) | inconclusive: 100 µM [inhibitor, single point]
32 | CC(=O)Nc1cc2c(nc1C)nc(C)n2Cc1ccc(Br)cc1 | inconclusive: 0.447 µM [inhibitor, full curve, poor fit]
33 | Cc1ccc(NC(=O)c2c(C)oc3ccc(O)c(CN(C)Cc4ccccc4)c23)c(C)c1 | inconclusive: 20 µM [inhibitor, single point]
34 | CCN(CCCNC(=O)CCCOc1cc(=O)n(C)c2ccccc12)Cc1ccccc1 | inconclusive: 89.1 µM [inhibitor, single point]
35 | COc1ccc(C(=O)C2CCN(C(=O)c3ccc(OC)cc3)CC2)cc1 | inconclusive: 89.1 µM [inhibitor, single point]
36 | COc1ccc(OC)c(CNc2ncnc3c2nc2n3CCCC2)c1 | inactive
37 | CCOC(=O)C1CCN(C(=O)/C=C/c2ccc3c(c2)OCO3)CC1 | inconclusive: 22.4 µM [inhibitor, single point]
38 | C#CCOc1ccc(/C=C2/C(=O)NN(c3ccccc3)C2=O)cc1OC | inconclusive: 50.1 µM [inhibitor, partial curve, poor fit]
39 | CCOC(=O)C1CCN(Cc2ccc(OC)cc2OC)CC1 | inconclusive: 3.16 µM [inhibitor, partial curve, poor fit]
40 | CCn1c(NC(C)=O)nc2ccccc21 | inconclusive: 100 µM [inhibitor, single point]

Some of the entries above in a different format.
Row	SMILES	Potency
35	COc1ccc(C(=O)C2CCN(C(=O)c3ccc(OC)cc3)CC2)cc1	inconclusive: 89.1 µM [inhibitor, single point]
36	COc1ccc(OC)c(CNc2ncnc3c2nc2n3CCCC2)c1	inactive
